No constants are given. Whether binding was seen depends on the method and setting. Some entries that bind do so weakly or less than the wild type. Each block holds one molecule with its values, some of them ahead of it.
What was measured:
[1] = biological target: AD-2015 (2xThr) (Dictyostelium discoideum) (UniProt P08799); assay: sedimentation assembly assay; unpublished data; self-assembly of AD-2015 (2xThr); both purified
[2] = biological target: AD-Cterm (3xAsp) myosin-II tail fragment (Dictyostelium discoideum) (UniProt P08799); assay: negative-stain electron microscopy; unpublished data; electron micrographs of assembled samples; both purified
[3] = biological target: AD-Cterm (3xThr) myosin-II tail fragment (Dictyostelium discoideum) (UniProt P08799); assay: AUC; sedimentation equilibrium; step: coiled coils to larger species; 10.5-52 uM protein, 10 mM Tris pH 7.4, 0.1 mM EDTA, 500 mM NaCl, 10 °C, 10,000 rpm; both purified

- binding [1]: binds
Molecule: AD-2015 (2xThr) (from UniProt P08799 1531-2015) (domain or fragment)

- binding [2]: binds weakly
B1: AD-Cterm (3xAsp) myosin-II tail fragment (domain or fragment, Dictyostelium discoideum)
chain: MNVEFIRKKDAEIDDLRARLDRETESRIKSDEDKKNTRKQFADLEAKVEEAQREVVTIDRLKKKLESDIIDLSTQLDTETKSRIKIEKSKKKLEQTLAERRAAEEGSSKAADEEIRKQVWQEVDELRAQLDSERAALNASEKKIKSLVAEVDEVKEQLEDEILAKDKLVKAKRALEVELEEVRDQLEEEEDSRSELEDSKRRLTTEVEDIKKKYDAEVEQNTKLDEAKKKLTDDVDTLKKQLEDEKKKLNESERAKKRLESENEDFLAKLDAEVKNRSRAEKDRKKYEKDLKDDKYKLNDEAADKTQTEIGAAKLEDQIDELRSKLEQEQAKATQADKSKKTLEGEIDNLRAQIEDEGKIKMRLEKEKRALEGELEELRETVEEAEDSKSEAEQSKRLVELELEDARRNLQKEIDAKEIAEDAKSNLQREIVEAKGRLEEESIARTNSDRSRKRLEAEIDALTAQVDAEQKAKNQQIKENKKIETELKEYRKKFGESEKDKTKEFLVVEKLETDYKRAKKEAADEQQQRLTVENDLRKHLSEISLLKDAIDKLQRDHDKTKRELETETASKIEMQRKMADFFGGFKA
notes: N-terminal methionine added before the myosin residues; Dictyostelium myosin-II heavy chain, a.a; 1,531-2,116, aspartic acids in place of the three threonine phosphorylation sites; Phosphomimetic; also called headless AD-Cterm (3xAsp); 3xAsp tail fragment; source: E. coli BL21-CodonPlus (DE3)-RIL, purified (boiling, DEAE, Superdex 200, Mono Q)

- binding [3]: no binding (condition: 500 mM NaCl)
B2: AD-Cterm (3xThr) myosin-II tail fragment (domain or fragment, Dictyostelium discoideum)
chain: MNVEFIRKKDAEIDDLRARLDRETESRIKSDEDKKNTRKQFADLEAKVEEAQREVVTIDRLKKKLESDIIDLSTQLDTETKSRIKIEKSKKKLEQTLAERRAAEEGSSKAADEEIRKQVWQEVDELRAQLDSERAALNASEKKIKSLVAEVDEVKEQLEDEILAKDKLVKAKRALEVELEEVRDQLEEEEDSRSELEDSKRRLTTEVEDIKKKYDAEVEQNTKLDEAKKKLTDDVDTLKKQLEDEKKKLNESERAKKRLESENEDFLAKLDAEVKNRSRAEKDRKKYEKDLKDTKYKLNDEAATKTQTEIGAAKLEDQIDELRSKLEQEQAKATQADKSKKTLEGEIDNLRAQIEDEGKIKMRLEKEKRALEGELEELRETVEEAEDSKSEAEQSKRLVELELEDARRNLQKEIDAKEIAEDAKSNLQREIVEAKGRLEEESIARTNSDRSRKRLEAEIDALTAQVDAEQKAKNQQIKENKKIETELKEYRKKFGESEKTKTKEFLVVEKLETDYKRAKKEAADEQQQRLTVENDLRKHLSEISLLKDAIDKLQRDHDKTKRELETETASKIEMQRKMADFFGGFKA
notes: N-terminal methionine added before the myosin residues; Dictyostelium myosin-II heavy chain, a.a; 1,531-2,116 (assembly domain through C terminus); the assembly rows are about coiled coils joining into paracrystals; also called headless AD-Cterm (3xThr); wild-type tail fragment; source: E. coli BL21-CodonPlus (DE3)-RIL, purified (boiling, DEAE, Superdex 200, Mono Q)

From paper PMC523230, “Dictyostelium Myosin Bipolar Thick Filament Formation: Importance of Charge and Specific Domains of the Myosin Rod” (PLoS Biology, 2004)
